Test results from article PMC4141763, “Reciprocal Activating Crosstalk between c-Met and Caveolin 1 Promotes Invasive Phenotype in Hepatocellular Carcinoma” (PLoS ONE, 2014).
These are yes or no findings as the source states them, for the method shown. Binding seen in cells or lysates may run through a third protein. Some results given as binding are weak or reduced against the parent protein; the word gives no strength.

The chains behind the UniProt entries cited, without tags or fusion partners. Residues count along the entry.
UniProt P08581, residues 25-1390: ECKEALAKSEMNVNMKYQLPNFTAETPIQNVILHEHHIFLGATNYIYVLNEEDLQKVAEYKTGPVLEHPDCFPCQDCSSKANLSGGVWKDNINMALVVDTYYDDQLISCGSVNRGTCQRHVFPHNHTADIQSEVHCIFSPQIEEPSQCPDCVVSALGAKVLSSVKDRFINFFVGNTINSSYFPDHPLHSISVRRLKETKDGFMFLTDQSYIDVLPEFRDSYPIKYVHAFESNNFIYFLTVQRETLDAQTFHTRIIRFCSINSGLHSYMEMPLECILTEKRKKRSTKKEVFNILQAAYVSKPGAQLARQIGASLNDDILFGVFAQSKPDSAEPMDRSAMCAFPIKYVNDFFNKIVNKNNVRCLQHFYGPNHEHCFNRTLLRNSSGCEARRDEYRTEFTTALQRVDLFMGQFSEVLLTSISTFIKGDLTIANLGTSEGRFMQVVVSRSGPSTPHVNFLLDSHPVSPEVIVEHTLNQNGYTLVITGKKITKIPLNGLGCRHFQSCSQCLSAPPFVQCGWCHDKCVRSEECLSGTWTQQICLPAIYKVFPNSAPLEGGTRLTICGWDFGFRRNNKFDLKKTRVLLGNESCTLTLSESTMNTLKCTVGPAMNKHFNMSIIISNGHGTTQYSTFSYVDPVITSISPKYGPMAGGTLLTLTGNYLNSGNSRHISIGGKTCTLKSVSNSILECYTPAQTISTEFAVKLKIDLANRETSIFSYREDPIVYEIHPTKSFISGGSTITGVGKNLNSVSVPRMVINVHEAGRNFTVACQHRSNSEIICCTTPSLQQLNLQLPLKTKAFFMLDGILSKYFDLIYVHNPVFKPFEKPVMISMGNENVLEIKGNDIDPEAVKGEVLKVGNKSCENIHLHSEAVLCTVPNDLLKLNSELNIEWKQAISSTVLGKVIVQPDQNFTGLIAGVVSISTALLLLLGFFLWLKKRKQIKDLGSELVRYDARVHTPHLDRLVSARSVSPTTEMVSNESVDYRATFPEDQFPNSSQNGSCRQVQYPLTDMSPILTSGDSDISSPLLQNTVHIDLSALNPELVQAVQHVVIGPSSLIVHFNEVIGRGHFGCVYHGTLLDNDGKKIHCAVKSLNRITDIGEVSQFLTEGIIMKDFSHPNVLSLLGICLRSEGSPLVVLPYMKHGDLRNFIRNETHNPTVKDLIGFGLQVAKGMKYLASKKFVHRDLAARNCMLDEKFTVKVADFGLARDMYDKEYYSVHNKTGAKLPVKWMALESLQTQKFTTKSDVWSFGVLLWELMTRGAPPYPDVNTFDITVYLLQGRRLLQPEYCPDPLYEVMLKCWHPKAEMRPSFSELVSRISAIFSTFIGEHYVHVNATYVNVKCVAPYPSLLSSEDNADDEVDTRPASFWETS

Assays:
[1] = biological target: c-Met, the receptor for Hepatocyte Growth Factor (HGF) (human (endogenous in SNU-449 and Mahlavu)) (UniProt P08581); assay: co-IP; SNU-449 whole cell lysates (modified NP-40 buffer) precipitated with agarose-conjugated anti-c-Met antibody (sc-161 AC), blotted for CAV1 and c-Met; serum-starved cells untreated or exposed to HGF (40 ng/mL) for 15, 30 and 60 min; IgG as IP control
[2] = biological target: c-Met, the receptor for Hepatocyte Growth Factor (HGF) (human (endogenous in SNU-449 and Mahlavu)) (UniProt P08581); assay: co-IP; Mahlavu whole cell lysates precipitated with anti-c-Met antibody, blotted for CAV1 and c-Met; serum-starved cells untreated or exposed to HGF for 15, 30 and 60 min; IgG as IP control

- binding [1]: binds
- binding [2]: binds
B1: Caveolin 1 (CAV1) (natural protein, UniProt Q03135 1-178, looked up)
chain: MSGGKYVDSEGHLYTVPIREQGNIYKPNNKAMADELSEKQVYDAHTKEIDLVNRDPKHLNDDVVKIDFEDVIAEPEGTHSFDGIWKASFTTFTVTKYWFYRLLSALFGIPMALIWGIYFAILSFLHIWAVVPCIKSFLIEIQCISRVYSIYVHTVCDPLFEAVGKIFSNVRINLQKEI
notes: detected by Western blot with an antibody to CAV1; Endogenous protein; the co-IP blot detects total CAV1; source: endogenous, Mahlavu whole cell lysate
